From patent publication US20100115639A1 (PIERRE FABRE MEDICAMENT, published 2010)
Residue numbers refer to the chain shown, from its start. These are yes or no findings as the source states them, for the method shown. Some entries that bind do so weakly or less than the wild type.

By UniProt entry, the sequences of proteins in these tests, tags left out. Where a name states a change or a piece, a line headed by the entry shows the natural chain unless it says otherwise. Residues count along the entry.
UniProt P08581: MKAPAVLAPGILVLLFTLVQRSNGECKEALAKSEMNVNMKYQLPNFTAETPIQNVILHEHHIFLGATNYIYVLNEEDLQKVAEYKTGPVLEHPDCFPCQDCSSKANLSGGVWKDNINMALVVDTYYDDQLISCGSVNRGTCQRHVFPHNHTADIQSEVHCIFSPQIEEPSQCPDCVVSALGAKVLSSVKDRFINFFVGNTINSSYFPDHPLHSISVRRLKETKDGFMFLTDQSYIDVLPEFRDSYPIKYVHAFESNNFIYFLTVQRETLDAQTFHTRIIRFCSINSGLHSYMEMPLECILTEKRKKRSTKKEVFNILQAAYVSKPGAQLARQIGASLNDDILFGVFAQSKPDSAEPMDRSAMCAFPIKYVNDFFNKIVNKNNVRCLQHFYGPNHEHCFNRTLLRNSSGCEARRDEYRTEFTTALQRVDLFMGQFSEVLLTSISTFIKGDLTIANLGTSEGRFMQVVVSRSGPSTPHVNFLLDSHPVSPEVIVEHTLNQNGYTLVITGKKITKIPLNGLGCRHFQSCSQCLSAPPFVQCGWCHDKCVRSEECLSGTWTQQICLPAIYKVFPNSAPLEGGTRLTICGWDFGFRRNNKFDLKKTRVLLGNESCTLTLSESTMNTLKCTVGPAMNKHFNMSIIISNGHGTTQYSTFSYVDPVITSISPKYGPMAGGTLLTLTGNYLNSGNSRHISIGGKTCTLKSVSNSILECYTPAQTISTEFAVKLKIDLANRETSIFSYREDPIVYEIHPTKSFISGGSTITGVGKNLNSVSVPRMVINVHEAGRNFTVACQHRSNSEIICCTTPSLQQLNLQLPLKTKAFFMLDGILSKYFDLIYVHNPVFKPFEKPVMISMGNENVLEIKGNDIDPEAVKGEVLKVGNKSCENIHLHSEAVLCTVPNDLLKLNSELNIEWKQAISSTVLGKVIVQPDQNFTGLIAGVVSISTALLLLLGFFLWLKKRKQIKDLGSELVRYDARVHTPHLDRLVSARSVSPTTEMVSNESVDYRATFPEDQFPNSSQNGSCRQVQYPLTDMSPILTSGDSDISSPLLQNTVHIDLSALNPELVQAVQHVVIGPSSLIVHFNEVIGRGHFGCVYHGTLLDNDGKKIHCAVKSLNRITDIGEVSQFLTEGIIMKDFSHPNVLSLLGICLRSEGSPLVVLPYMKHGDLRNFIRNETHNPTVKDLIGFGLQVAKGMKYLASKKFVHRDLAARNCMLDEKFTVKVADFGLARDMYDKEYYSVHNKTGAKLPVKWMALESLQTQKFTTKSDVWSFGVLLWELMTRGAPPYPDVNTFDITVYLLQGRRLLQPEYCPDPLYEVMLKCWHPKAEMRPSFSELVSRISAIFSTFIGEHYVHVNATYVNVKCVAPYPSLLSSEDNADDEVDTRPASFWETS
recombinant Fc-cMet (Example 27 ELISA assays): residues 25-932 of P08581

Experiments:
[1] = target: recombinant c-Met-Extra-Cellular Domain (ECD) fused to a human IgG1 Fc domain (R&D Systems, 358MT) (human) (UniProt P08581); experiment: BIAcore X, around 270 RU of captured c-Met-Fc, 2 minute injections at 10 µg/ml
[2] = target: monomeric fragment of the recombinant c-Met protein (obtained by cleavage of the recombinant c-Met-Fc protein) (human) (UniProt P08581); experiment: ELISA, monomeric c-Met coated at 5 µg/ml, hybridoma supernatants
[3] = target: recombinant Fc-cMet (Example 27 ELISA assays) (UniProt P08581); experiment: direct binding ELISA on plastic-coated Fc-cMet, anti-murine Fc detection (FIG. 53)
[4] = target: T1, recombinant SEMA domain of c-Met (UniProt P08581 27-515, limits assumed); experiment: ELISA, SEMA domain coated at 3 µg/ml
T1 construct: domain: SEMA; also called SEMA protein

[5] = target: recombinant Fc-cMet (Example 27 ELISA assays) (UniProt P08581); experiment: HGF-cMet competition ELISA, residual Fc-cMet binding to coated HGF (FIG. 54)
[6] = target: recombinant c-Met-Extra-Cellular Domain (ECD) fused to a human IgG1 Fc domain (R&D Systems, 358MT) (human) (UniProt P08581); experiment: ELISA, human dimeric c-Met protein coated at 0.7 µg/ml, hybridoma supernatants
[7] = target: recombinant Fc-cMet (Example 27 ELISA assays) (UniProt P08581); experiment: HGF-cMet competition ELISA (FIG. 74)
[8] = target: recombinant Fc-cMet (Example 27 ELISA assays) (UniProt P08581); experiment: HGF-cMet competition ELISA (FIG. 71)
[9] = target: recombinant c-Met-Extra-Cellular Domain (ECD) fused to a human IgG1 Fc domain (R&D Systems, 358MT) (human) (UniProt P08581); experiment: BIAcore X, Fab as analyte on c-Met-Fc-His captured by anti-His antibody, 25°C
[10] = target: recombinant Fc-cMet (Example 27 ELISA assays) (UniProt P08581); experiment: HGF-cMet competition ELISA (FIG. 58)
[11] = target: recombinant Fc-cMet (Example 27 ELISA assays) (UniProt P08581); experiment: direct binding ELISA on plastic-coated Fc-cMet, anti-human Fc detection (FIG. 56)
[12] = target: recombinant Fc-cMet (Example 27 ELISA assays) (UniProt P08581); experiment: direct binding ELISA on plastic-coated Fc-cMet, anti-human Fc detection (FIG. 63)
[13] = target: recombinant Fc-cMet (Example 27 ELISA assays) (UniProt P08581); experiment: direct binding ELISA on plastic-coated Fc-cMet, anti-human Fc detection (FIG. 64)
[14] = target: recombinant Fc-cMet (Example 27 ELISA assays) (UniProt P08581); experiment: direct binding ELISA on plastic-coated Fc-cMet, anti-human Fc detection (FIG. 61)
[15] = target: recombinant Fc-cMet (Example 27 ELISA assays) (UniProt P08581); experiment: direct binding ELISA on plastic-coated Fc-cMet, anti-human Fc detection (FIG. 73)
[16] = target: recombinant Fc-cMet (Example 27 ELISA assays) (UniProt P08581); experiment: direct binding ELISA on plastic-coated Fc-cMet, anti-human Fc detection (FIG. 69)
[17] = target: recombinant Fc-cMet (Example 27 ELISA assays) (UniProt P08581); experiment: direct binding ELISA on plastic-coated Fc-cMet, anti-human Fc detection (FIG. 70)

Measured: binding

B1: 11E1 murine monoclonal antibody (antibody, V domains shown)
VH: QVQLQQSGAELAKPGASVKMSCKASGYTFTSYWMNWVKQRPGQGLEWIGYINPTTGSTDYNQKLKDKATLTADKSSNTAYMQLSSLTSEDSAVYYCAIGGYGSWFAYWGQGTLVTVSA
VL: QIVLTQSPAIMSASPGEKVTLTCSASSSVSSTYLYWYQQKPGSSPKLWIYTTSILASGVPARFSGSGSGTSYSLTISSMETEDAASYFCHQWSSYPFTFGSGTKLDIK
notes: Used as hybridoma supernatant or purified Mab; also called MAb 11E1; CNCM I-3724
binds: [1] | [2] | [3] | [4] | [5] | [6]

B2: 224G11 murine monoclonal antibody (antibody, mouse IgG1, V domains shown)
VH: EVQLQQSGPELVKPGASVKISCKTSGYIFTAYTMHWVRQSLGESLDWIGGIKPNNGLANYNQKFKGKATLTVDKSSSTAYMDLRSLTSEDSAVYYCARSEITTEFDYWGQGTALTVSS
VL: DIVLTQSPASLAVSLGQRATISCRASESVDSYANSFMHWYQQKPGQPPKLLIYRASNLESGIPARFSGSGSRTDFTLTINPVEADDVATYYCQQSKEDPLTFGSGTKLEMK
notes: also called CNCM I-3731
binds: [7] | [2] | [3] | [8] | [5] | [6]

B3: Fab fragment of mAb 11E1 (papain cleavage) (Fab, V domains shown)
VH: B1 VH
VL: B1 VL
notes: also called 11E1 Fab
binds: [9]

B4: Fab fragment of mAb 224G11 (papain cleavage) (Fab, V domains shown)
VH: B2 VH
VL: B2 VL
notes: also called 224G11 Fab
binds: [9]

B5: 223C4 murine monoclonal antibody (antibody, mouse IgG1, V domains shown)
VH: EVLLQQSGPELVKPGASVKIPCKASGYTFTDYNMDWVKQSHGMSLEWIGDINPNNGGTIFNQKFKGKATLTVDKSSSTAYMELRSLTSEDTAVYYCARGRYVGYYYAMDYWGQGTSVTVSS
VL: DIQMTQSPASLSVSVGETVTITCRASENIYSNLAWYQQKQGKSPQLLVYAATNLVDGVPSRFSGSGSGTQYSLKINSLQSEDFGSYYCQHFWGPPYTFGGGTKLEIK
notes: also called CNCM I-3786
binds: [2] | [6]

B6: 227H1 murine monoclonal antibody (antibody, mouse IgG1, V domains shown)
VH: EVQLQQSGPELVKPGASMKISCKASGYSFTDYTLNWVKQSHGKTLEWIGLINPYNGGTTYNQKFKGKATLTVDKSSSTAYMELLSLTSEDSAVYYCAREEITKDFDFWGQGTTLTVSS
VL: B2 VL with D1G, A25V, V29I, S31T, A33G, M37I, V87S, K96N, L100F
notes: also called CNCM I-3732
binds: [10] | [2] | [3] | [6]

B7: chimeric 227H1 recombinant antibody (antibody, V domains shown)
VH: B6 VH
VL: B2 VL with D1G, A25V, V29I, S31T, A33G, M37I, V87S, K96N, L100F
binds: [10] | [11]

B8: chimeric 11E1 recombinant antibody (antibody, IgG1, V domains shown)
VH: B1 VH
VL: B1 VL
binds: [12] | [13] | [14]

B9: chimeric 224G11 recombinant antibody (antibody, V domains shown)
VH: B2 VH
VL: B2 VL
binds: [15] | [7] | [16] | [8] | [17]
